From the supplement of paper PMC10849652
The list shows a part of the results.

The chains behind the UniProt entries cited, without tags or fusion partners. Where a name states a change or a piece, a line headed by the entry shows the natural chain unless it says otherwise.
UniProt Q5SXM8: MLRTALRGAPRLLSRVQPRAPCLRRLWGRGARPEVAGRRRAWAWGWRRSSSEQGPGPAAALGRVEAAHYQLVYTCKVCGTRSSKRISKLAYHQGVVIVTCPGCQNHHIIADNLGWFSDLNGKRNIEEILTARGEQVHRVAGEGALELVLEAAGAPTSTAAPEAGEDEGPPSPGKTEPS
UniProt Q7L591: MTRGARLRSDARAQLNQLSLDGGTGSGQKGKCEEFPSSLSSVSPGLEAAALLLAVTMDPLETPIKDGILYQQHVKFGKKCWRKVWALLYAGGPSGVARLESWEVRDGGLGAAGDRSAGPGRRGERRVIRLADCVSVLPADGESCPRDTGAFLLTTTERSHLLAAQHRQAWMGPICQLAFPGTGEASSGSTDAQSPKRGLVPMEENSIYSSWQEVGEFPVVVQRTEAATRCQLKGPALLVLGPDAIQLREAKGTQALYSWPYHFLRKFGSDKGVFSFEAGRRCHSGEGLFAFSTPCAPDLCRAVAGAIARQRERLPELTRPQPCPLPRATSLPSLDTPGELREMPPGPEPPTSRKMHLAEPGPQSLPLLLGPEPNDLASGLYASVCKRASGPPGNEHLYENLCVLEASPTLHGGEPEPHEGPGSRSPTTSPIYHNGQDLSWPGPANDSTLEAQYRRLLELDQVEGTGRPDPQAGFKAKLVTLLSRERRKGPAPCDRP
UniProt P51808: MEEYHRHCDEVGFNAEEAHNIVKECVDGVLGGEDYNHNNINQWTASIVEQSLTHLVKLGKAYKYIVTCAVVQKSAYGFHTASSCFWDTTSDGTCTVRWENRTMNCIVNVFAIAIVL
UniProt Q96DC8: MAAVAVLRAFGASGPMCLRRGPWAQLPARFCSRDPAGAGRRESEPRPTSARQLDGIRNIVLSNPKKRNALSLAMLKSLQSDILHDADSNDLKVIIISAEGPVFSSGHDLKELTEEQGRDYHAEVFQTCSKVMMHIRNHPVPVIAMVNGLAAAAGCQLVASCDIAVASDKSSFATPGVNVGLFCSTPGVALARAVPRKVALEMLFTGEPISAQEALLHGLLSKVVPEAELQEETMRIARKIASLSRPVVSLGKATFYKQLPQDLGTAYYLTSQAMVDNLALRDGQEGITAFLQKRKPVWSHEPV
UniProt O75923: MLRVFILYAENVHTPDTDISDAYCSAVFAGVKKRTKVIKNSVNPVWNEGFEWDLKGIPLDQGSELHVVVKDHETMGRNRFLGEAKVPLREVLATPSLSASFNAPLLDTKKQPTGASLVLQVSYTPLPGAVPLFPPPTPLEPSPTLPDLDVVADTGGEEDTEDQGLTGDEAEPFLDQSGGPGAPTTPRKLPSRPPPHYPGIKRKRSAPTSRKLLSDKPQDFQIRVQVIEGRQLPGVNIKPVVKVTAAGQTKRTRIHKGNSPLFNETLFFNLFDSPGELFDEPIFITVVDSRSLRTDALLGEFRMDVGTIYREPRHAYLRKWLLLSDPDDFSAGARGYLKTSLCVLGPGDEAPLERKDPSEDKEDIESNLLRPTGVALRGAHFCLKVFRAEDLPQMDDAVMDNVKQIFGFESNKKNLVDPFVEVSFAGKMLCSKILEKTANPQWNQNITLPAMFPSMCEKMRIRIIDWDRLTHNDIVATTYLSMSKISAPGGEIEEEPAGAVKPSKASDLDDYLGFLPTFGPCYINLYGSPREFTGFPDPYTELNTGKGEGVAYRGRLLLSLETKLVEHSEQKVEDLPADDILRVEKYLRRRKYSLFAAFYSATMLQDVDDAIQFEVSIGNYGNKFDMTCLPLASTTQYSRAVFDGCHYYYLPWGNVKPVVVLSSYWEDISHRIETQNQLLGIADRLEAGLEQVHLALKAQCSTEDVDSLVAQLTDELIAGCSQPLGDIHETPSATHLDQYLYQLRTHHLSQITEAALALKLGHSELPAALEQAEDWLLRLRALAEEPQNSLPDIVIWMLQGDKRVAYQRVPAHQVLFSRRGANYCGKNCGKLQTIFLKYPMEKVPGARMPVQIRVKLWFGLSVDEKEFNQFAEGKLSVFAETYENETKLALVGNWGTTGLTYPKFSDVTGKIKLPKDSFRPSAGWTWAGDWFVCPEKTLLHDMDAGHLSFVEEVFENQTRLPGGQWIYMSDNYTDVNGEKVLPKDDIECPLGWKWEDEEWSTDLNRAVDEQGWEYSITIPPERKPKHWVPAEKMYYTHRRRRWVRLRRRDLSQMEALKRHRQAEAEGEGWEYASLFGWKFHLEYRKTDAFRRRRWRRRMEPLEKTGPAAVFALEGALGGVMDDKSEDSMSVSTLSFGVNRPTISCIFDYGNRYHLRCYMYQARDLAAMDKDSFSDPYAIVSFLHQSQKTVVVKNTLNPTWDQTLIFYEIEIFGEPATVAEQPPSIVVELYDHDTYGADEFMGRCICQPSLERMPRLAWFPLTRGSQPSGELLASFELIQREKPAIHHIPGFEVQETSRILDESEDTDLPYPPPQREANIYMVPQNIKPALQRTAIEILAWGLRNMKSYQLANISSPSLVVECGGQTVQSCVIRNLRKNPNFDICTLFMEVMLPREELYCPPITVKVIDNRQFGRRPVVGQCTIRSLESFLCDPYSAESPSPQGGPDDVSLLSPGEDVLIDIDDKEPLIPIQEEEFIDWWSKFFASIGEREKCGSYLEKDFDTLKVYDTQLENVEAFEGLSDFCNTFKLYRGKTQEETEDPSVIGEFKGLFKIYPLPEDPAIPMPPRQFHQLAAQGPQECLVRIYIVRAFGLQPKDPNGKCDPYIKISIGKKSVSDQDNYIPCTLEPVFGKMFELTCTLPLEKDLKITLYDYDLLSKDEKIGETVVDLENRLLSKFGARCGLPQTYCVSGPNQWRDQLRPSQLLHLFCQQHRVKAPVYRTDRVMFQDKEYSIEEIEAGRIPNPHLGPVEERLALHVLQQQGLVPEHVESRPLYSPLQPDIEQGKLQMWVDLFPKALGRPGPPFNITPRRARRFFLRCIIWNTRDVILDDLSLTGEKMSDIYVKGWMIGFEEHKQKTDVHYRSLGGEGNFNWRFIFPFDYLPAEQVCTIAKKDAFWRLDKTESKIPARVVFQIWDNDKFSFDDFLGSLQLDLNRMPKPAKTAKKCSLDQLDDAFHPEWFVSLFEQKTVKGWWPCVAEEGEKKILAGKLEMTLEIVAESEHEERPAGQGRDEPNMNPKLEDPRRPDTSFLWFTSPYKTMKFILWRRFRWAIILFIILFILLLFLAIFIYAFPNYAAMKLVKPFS
UniProt Q9UBS3: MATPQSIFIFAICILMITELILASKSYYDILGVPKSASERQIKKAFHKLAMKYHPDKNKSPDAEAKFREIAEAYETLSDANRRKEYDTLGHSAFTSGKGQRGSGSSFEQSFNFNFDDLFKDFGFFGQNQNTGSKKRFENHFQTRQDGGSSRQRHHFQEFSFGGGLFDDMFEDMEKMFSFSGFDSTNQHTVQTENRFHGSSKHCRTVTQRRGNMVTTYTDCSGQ
UniProt Q9Y5T4: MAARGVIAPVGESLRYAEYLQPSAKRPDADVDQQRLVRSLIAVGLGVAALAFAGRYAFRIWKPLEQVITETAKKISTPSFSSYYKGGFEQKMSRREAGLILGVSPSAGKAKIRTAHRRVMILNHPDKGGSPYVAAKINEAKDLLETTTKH
UniProt Q96LL9: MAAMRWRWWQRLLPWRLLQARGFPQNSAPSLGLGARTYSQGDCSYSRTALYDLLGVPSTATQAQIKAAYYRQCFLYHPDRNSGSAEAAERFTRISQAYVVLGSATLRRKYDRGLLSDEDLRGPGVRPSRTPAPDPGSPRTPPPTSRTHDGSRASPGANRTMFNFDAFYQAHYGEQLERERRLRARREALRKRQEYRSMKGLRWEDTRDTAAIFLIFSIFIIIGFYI
UniProt Q9Y3R5: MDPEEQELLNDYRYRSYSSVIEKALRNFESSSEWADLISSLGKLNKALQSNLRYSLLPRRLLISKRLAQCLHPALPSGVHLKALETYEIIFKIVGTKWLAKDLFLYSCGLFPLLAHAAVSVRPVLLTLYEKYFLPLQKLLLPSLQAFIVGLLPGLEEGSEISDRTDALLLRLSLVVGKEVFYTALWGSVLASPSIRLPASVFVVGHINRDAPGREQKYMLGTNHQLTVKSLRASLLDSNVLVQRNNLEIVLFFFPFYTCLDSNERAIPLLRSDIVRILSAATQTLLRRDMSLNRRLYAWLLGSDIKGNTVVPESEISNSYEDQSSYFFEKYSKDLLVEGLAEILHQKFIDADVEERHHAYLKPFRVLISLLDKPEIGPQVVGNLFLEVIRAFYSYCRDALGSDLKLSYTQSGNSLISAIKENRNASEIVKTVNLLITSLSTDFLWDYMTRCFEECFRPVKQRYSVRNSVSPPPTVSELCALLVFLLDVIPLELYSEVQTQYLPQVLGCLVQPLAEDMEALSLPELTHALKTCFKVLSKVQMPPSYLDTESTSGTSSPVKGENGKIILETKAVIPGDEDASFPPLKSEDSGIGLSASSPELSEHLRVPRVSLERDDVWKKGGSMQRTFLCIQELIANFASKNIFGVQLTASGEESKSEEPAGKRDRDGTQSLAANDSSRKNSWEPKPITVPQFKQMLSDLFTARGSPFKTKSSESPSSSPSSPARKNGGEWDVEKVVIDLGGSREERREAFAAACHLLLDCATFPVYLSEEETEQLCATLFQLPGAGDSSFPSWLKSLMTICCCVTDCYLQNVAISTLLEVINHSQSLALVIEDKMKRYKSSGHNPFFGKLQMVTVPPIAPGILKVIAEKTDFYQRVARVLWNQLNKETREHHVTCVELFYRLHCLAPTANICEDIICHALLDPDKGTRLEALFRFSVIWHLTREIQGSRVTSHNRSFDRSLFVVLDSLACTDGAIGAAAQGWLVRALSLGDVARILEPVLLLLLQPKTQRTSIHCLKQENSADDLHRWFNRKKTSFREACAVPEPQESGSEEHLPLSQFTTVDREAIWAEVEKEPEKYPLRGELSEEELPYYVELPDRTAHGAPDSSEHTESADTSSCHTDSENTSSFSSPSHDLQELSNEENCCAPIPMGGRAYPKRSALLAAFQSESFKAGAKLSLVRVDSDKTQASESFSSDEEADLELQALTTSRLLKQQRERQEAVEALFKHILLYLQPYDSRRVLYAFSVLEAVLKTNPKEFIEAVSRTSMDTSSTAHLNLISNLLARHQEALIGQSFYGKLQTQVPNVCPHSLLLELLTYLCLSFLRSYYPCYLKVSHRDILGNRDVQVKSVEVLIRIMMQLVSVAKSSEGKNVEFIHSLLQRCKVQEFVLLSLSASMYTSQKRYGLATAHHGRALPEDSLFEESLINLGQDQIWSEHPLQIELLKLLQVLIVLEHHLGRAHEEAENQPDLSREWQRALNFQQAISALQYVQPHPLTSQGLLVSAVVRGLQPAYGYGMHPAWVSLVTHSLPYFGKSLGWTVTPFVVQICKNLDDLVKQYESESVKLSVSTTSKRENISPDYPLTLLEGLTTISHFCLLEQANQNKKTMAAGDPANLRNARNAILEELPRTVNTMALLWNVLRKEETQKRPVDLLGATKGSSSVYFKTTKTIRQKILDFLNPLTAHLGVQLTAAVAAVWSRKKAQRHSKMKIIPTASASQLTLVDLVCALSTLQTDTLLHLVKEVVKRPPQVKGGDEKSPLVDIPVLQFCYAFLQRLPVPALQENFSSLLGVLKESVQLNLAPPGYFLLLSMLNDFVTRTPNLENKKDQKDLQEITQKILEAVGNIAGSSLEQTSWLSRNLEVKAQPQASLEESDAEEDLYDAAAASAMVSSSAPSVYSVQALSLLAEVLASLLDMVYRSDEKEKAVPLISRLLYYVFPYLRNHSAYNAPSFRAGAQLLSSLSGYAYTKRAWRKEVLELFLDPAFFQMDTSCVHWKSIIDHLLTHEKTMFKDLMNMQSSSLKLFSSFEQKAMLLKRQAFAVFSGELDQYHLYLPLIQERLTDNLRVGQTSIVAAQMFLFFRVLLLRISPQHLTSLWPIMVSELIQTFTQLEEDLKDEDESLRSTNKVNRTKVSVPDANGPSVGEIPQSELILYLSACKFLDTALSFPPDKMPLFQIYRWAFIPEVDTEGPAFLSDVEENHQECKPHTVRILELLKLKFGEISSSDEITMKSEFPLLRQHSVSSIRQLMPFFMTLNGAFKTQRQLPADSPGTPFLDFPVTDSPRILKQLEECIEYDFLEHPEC
UniProt O00716: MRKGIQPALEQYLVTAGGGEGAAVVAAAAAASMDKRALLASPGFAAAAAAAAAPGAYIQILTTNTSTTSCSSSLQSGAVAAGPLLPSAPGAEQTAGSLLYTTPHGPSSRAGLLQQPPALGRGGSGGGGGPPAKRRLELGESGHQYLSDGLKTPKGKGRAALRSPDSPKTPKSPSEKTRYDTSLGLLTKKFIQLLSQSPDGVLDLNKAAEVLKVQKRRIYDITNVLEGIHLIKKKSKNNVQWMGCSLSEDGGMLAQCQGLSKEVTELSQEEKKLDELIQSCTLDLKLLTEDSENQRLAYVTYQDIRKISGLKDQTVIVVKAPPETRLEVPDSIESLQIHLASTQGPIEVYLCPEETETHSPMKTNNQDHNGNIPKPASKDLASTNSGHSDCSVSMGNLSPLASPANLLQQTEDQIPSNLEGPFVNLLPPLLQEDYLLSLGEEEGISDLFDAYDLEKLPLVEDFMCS

How the values were obtained:
Experiment in all cases: log2 fold change, soluble protein after heating vs DMSO (PISA); higher = thermal stabilisation; K562 cells, 10 uM, 30 min; active = over 0.2 and 3.5 SD of the protein, either way, in both replicates (recomputed)
saracatinib = compound: CN1CCN(CCOc2cc(OC3CCOCC3)c3c(Nc4c(Cl)ccc5c4OCO5)ncnc3c2)CC1 [saracatinib]
Procedure, shortened: (§1)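 Values are thermal stability changes relative to control samples and are taken from duplicates. They are stated as log2 fold changes. Before quantification by TMTpro 16plex LC-MS/MS with equalised channel sums, K562 cells at 2×10^6 cells/mL were treated with 10 μM compound for 30 min, heated in aliquots for 3 min across 48°C-58°C, pooled, extracted in PBS with 0.5% NP-40 at 4°C, and centrifuged at 21,000xg for 90 min to give the soluble supernatant.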

sotrastaurin = compound: CN1CCN(c2nc(C3=C(c4c[nH]c5ccccc45)C(=O)NC3=O)c3ccccc3n2)CC1 [sotrastaurin]
Procedure, shortened: as §1

alvocidib = compound: CN1CC[C@H](c2c(O)cc(O)c3c(=O)cc(-c4ccccc4Cl)oc23)[C@H](O)C1 [alvocidib]
Procedure, shortened: as §1

Tubastatin A = compound: CN1CCc2c(c3ccccc3n2Cc2ccc(C(=O)NO)cc2)C1 [Tubastatin A]
Procedure, shortened: as §1

[1] = compound: CNC(=O)C1=CC=CC=C1NC2=NC(=NC=C2Cl)NC3=C(C=C(C=C3)N4CCOCC4)OC
Procedure, shortened: as §1

defactinib = compound: CNC(=O)c1ccc(Nc2ncc(C(F)(F)F)c(NCc3nccnc3N(C)S(C)(=O)=O)n2)cc1 [defactinib]
Procedure, shortened: as §1

rucaparib = compound: CNCc1ccc(-c2[nH]c3cc(F)cc4c3c2CCNC4=O)cc1 [rucaparib]
Procedure, shortened: as §1

[2] = compound: CNc1nc(-c2ccc3c(N)n[nH]c3c2)cc(N2C[C@@H](C(=O)NC3CCCCC3)CC[C@H]2C)n1
Procedure, shortened: as §1

encorafenib = compound: COC(=O)N[C@@H](C)CNc1nccc(-c2cn(C(C)C)nc2-c2cc(Cl)cc(NS(C)(=O)=O)c2F)n1 [encorafenib]
Procedure, shortened: as §1

[3] = compound: COC(=O)[C@H](CCSC)NC(=O)C1=C(C=C(C=C1)NC[C@H](CS)N)C2=CC=CC=C2
Procedure, shortened: as §1

filanesib = compound: CON(C)C(=O)N1N=C(c2cc(F)ccc2F)S[C@@]1(CCCN)c1ccccc1 [filanesib]
Procedure, shortened: as §1

zotarolimus = compound: CO[C@H]1C[C@@H]2CC[C@@H](C)[C@@](O)(O2)C(=O)C(=O)N2CCCC[C@H]2C(=O)O[C@H]([C@H](C)C[C@@H]2CC[C@H](n3cnnn3)[C@H](OC)C2)CC(=O)[C@H](C)/C=C(\C)[C@@H](O)[C@@H](OC)C(=O)[C@H](C)C[C@H](C)/C=C/C=C/C=C/1C [zotarolimus]
Procedure, shortened: as §1

idasanutlin = compound: COc1cc(C(=O)O)ccc1NC(=O)[C@@H]1N[C@@H](CC(C)(C)C)[C@](C#N)(c2ccc(Cl)cc2F)[C@H]1c1cccc(Cl)c1F [idasanutlin]
Procedure, shortened: as §1

alisertib = compound: COc1cc(Nc2ncc3c(n2)-c2ccc(Cl)cc2C(c2c(F)cccc2OC)=NC3)ccc1C(=O)O [alisertib]
Procedure, shortened: as §1

[4] = compound: COc1cc2nc(-c3cc(F)ccc3O)nc(N[C@@H]3CNC[C@H]3C(C)(C)O)c2cc1OC
Procedure, shortened: as §1

gefitinib = compound: COc1cc2ncnc(Nc3ccc(F)c(Cl)c3)c2cc1OCCCN1CCOCC1 [gefitinib]
Procedure, shortened: as §1

[5] = compound: COc1cccc2cc(-c3nc([C@H]4CC[C@H](C(=O)O)CC4)n4ncnc(N)c34)[nH]c12
Procedure, shortened: as §1

lapatinib = compound: CS(=O)(=O)CCNCc1ccc(-c2ccc3ncnc(Nc4ccc(OCc5cccc(F)c5)c(Cl)c4)c3c2)o1 [lapatinib]
Procedure, shortened: as §1

[6] = compound: COC1=CC=C(C=C1)CN2C=CC3=C2C=C(C=C3)C(=O)NO
Procedure, shortened: as §1

pictilisib = compound: CS(=O)(=O)N1CCN(Cc2cc3nc(-c4cccc5[nH]ncc45)nc(N4CCOCC4)c3s2)CC1 [pictilisib]
Procedure, shortened: as §1

Measured: log2 fold change

DNLZ (UniProt Q5SXM8)
inactive: saracatinib 0.032 | sotrastaurin 0.121 | alvocidib 0.06 | Tubastatin A 0.032 | [1] -0.053 | defactinib 0.045 | rucaparib 0.069 | [2] -0.111 | encorafenib 0.034 | [3] 0.036 | filanesib 0.013 | zotarolimus -0.041 | idasanutlin -0.12 | alisertib -0.116 | [4] 0.051 | gefitinib -0.055 | [5] 0.029 | lapatinib -0.105

E4F1 (UniProt Q66K89)
inactive: saracatinib 0.121 | sotrastaurin 0.109 | alvocidib -0.064 | Tubastatin A -0.003 | defactinib -0.045 | [2] -0.099 | [3] 0.166 | [6] -0.24 | filanesib 0.331 | zotarolimus 0.685 | idasanutlin 0.082 | alisertib 0.449 | [4] -0.123 | [5] 0.225 | lapatinib 0.094 | pictilisib -0.194

DPYSL2 (UniProt Q16555)
inactive: saracatinib 0.127 | sotrastaurin 0.062 | Tubastatin A -0.003 | [1] -0.066 | defactinib 0.02 | rucaparib 0.015 | [2] -0.032 | encorafenib -0.054 | [3] -0.009 | [6] -0.082 | filanesib 0.006 | zotarolimus -0.06 | idasanutlin 0.029 | alisertib 0.093 | [4] 0.055 | gefitinib -0.041 | [5] 0.038 | lapatinib 0.029
active: pictilisib 0.262

DOK3 (UniProt Q7L591)
inactive: saracatinib -0.039 | sotrastaurin -0.056 | alvocidib -0.013 | Tubastatin A 0.11 | [1] -0.017 | defactinib -0.101 | [2] 0.033 | [3] -0.136 | filanesib -0.071 | zotarolimus 0.056 | idasanutlin 0.01 | alisertib 0.194 | [4] 0.166 | [5] 0.336 | lapatinib 0.039 | pictilisib -0.041

DRG2 (UniProt P55039)
inactive: saracatinib 0.004 | sotrastaurin 0.003 | alvocidib -0.018 | Tubastatin A 0.002 | [1] 0.019 | defactinib -0.017 | rucaparib -0.027 | [2] -0.021 | encorafenib 0.006 | [3] -0.016 | [6] -0.004 | filanesib -0.049 | zotarolimus 0.039 | idasanutlin -0.082 | alisertib -0.04 | [4] 0.079 | gefitinib -0.003 | [5] 0.021 | lapatinib -0.057 | pictilisib 0.071

DPH2 (UniProt Q9BQC3)
inactive: saracatinib 0.018 | sotrastaurin -0.04 | alvocidib 0.006 | Tubastatin A -0.002 | [1] -0.054 | defactinib -0.001 | rucaparib -0.006 | [2] -0.036 | encorafenib 0 | [3] 0.072 | [6] -0.049 | filanesib 0.003 | zotarolimus -0.079 | idasanutlin 0.007 | alisertib 0.021 | [4] 0.033 | gefitinib -0.016 | [5] -0.152 | lapatinib -0.044 | pictilisib -0.061

ECM1 isoform 2 (UniProt Q16610)
inactive: Tubastatin A 0.163 | defactinib 0.085 | [3] -0.081 | idasanutlin 0.073 | alisertib 0.889 | gefitinib -0.012 | [5] -0.073

DYNLT3 (UniProt P51808)
inactive: alvocidib 0.087 | rucaparib -0.001 | encorafenib -0.074 | zotarolimus 0.041 | idasanutlin 0.044 | gefitinib 0.004

DNAJC14 (UniProt Q6Y2X3)
inactive: alisertib 0.045 | [5] -0.165

DYNC2LI1 isoform 2 (UniProt Q8TCX1)
inactive: sotrastaurin -0.081 | alvocidib 0.107 | [1] 0.041 | defactinib 0.094 | [3] 0.015 | filanesib 0.01 | zotarolimus -0.062 | alisertib 0.001 | [4] 0.094 | [5] 0 | lapatinib 0.027

ECHDC3 (UniProt Q96DC8)
inactive: sotrastaurin -0.138 | Tubastatin A -0.008 | [1] 0.037 | defactinib -0.022 | rucaparib -0.043 | encorafenib -0.11 | [3] -0.118 | [6] -0.204 | filanesib 0.025 | alisertib 0.143 | gefitinib 0.178 | [5] -0.204 | pictilisib 0.088

DPY19L2 (UniProt Q6NUT2)
inactive: Tubastatin A -0.049 | defactinib 0.056 | rucaparib -0.132 | encorafenib 0.054 | [3] -0.007 | [6] -0.152 | idasanutlin 0.081 | alisertib -0.364 | gefitinib 0.017 | [5] -0.085 | pictilisib -0.027

Two neighbouring records out of the list so far, quoted:
DYNC2LI1 isoform 2 (UniProt Q8TCX1)
inactive: sotrastaurin -0.081 | alvocidib 0.107 | [1] 0.041 | defactinib 0.094 | [3] 0.015 | filanesib 0.01 | zotarolimus -0.062 | alisertib 0.001 | [4] 0.094 | [5] 0 | lapatinib 0.027

ECHDC3 (UniProt Q96DC8)
inactive: sotrastaurin -0.138 | Tubastatin A -0.008 | [1] 0.037 | defactinib -0.022 | rucaparib -0.043 | encorafenib -0.11 | [3] -0.118 | [6] -0.204 | filanesib 0.025 | alisertib 0.143 | gefitinib 0.178 | [5] -0.204 | pictilisib 0.088

Later entries:

DYSF isoform 13 (UniProt O75923)
inactive: sotrastaurin 0.253 | Tubastatin A -0.148 | [1] 0.009 | defactinib 0.03 | rucaparib 0.125 | encorafenib -0.066 | [3] 0.264 | [6] 0.033 | filanesib 0.015 | idasanutlin 0.049 | alisertib -0.268 | gefitinib -0.193 | [5] 0.056 | pictilisib 0.052

DNAJB9 (UniProt Q9UBS3)
inactive: [1] 0.088 | pictilisib -0.165

DNAJB1 (UniProt M0R128)
inactive: Tubastatin A -0.058 | defactinib -0.073 | [3] 0.18 | zotarolimus -0.062

DNAJC15 (UniProt Q9Y5T4)
inactive: sotrastaurin 0.088 | filanesib 0.031 | [4] -0.183 | lapatinib -0.179

DROSHA (UniProt Q9NRR4)
inactive: alvocidib 0.047 | Tubastatin A 0.002 | zotarolimus 0.16 | idasanutlin -0.005

DNAJC4 (UniProt Q9NNZ3)
inactive: [4] -0.302 | lapatinib -0.172

DUSP12 (UniProt V9GYV5)
inactive: sotrastaurin 0.13 | defactinib -0.076 | [3] 0.119 | [6] -0.063 | filanesib -0.115

DYNC1I1 (UniProt O14576)
inactive: defactinib -0.076 | [3] 0.136 | [4] -0.075 | lapatinib 0.172

DYNC1I2 isoform 2 (UniProt Q13409)
inactive: sotrastaurin 0.062 | Tubastatin A -0.028 | [1] -0.021 | rucaparib -0.034 | encorafenib -0.108 | [6] 0.093 | filanesib 0.203 | zotarolimus -0.085 | idasanutlin 0.201 | alisertib 0.066 | [4] 0.06 | [5] 0.051 | lapatinib -0.002

DNAJC25 (UniProt Q9H1X3)
inactive: Tubastatin A 0.05 | [1] -0.047 | [6] 0.07 | [4] -0.256 | lapatinib 0.333

DNAJC30 (UniProt Q96LL9)
inactive: [1] -0.026 | [6] -0.126 | idasanutlin 0.008

DOP1B (UniProt Q9Y3R5)
inactive: sotrastaurin 0.317 | alvocidib 0.035 | Tubastatin A -0.004 | defactinib 0.048 | rucaparib -0.27 | encorafenib -0.095 | [3] 0.274 | [6] -0.057 | filanesib 0.215 | zotarolimus -0.094 | alisertib -0.144 | gefitinib 0.005 | [5] 0.03 | pictilisib 0.287

DRAP1 (UniProt E9PQX9)
inactive: Tubastatin A 0.195 | [1] -0.174 | idasanutlin 0.123 | alisertib 0.175 | [4] 0.263 | [5] 0.092 | lapatinib -0.071

E2F3 (UniProt O00716)
inactive: sotrastaurin -0.06 | alvocidib -0.04 | Tubastatin A 0.02 | [1] 0.092 | defactinib -0.024 | rucaparib -0.05 | encorafenib 0.043 | [3] 0.087 | [6] -0.053 | filanesib -0.022 | zotarolimus 0.021 | alisertib -0.068 | gefitinib -0.022 | [5] 0.18 | pictilisib 0.041
